Reference: PMC6937734
No constants are given. Whether binding was seen depends on the method and setting. In cells and extracts the contact can be indirect. Here binding means that the protein was enriched with, or labelled near, the bait; the list need not be complete.

Chains of the proteins cited; added tags and fusions are not shown.
UniProt Q9UN81: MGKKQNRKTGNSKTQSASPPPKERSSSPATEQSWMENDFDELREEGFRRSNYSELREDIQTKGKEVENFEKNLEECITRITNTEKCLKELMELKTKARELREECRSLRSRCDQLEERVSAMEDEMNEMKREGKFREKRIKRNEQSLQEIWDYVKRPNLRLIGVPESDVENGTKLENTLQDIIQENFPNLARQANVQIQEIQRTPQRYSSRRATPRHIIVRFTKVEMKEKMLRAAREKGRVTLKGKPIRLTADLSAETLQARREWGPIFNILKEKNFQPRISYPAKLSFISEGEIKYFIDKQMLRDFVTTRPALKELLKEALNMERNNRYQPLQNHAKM
UniProt P08238: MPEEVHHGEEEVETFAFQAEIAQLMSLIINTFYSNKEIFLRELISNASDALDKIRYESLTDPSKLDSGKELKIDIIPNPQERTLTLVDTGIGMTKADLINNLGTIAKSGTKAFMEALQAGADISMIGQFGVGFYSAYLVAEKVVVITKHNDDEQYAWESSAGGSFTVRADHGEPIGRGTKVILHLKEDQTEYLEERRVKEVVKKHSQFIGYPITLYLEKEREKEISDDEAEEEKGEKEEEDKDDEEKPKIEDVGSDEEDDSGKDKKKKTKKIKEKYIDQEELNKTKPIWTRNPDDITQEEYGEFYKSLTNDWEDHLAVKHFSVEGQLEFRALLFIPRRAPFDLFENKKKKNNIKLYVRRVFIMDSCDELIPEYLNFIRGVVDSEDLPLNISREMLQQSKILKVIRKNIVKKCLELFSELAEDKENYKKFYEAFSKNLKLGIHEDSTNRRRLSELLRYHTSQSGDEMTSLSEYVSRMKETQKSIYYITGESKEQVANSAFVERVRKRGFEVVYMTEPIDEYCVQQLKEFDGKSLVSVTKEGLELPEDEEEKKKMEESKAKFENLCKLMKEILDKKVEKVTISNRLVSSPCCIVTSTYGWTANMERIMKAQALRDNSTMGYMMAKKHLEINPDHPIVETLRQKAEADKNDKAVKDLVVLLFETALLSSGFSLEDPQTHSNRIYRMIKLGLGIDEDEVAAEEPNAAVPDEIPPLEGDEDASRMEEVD
UniProt P07437: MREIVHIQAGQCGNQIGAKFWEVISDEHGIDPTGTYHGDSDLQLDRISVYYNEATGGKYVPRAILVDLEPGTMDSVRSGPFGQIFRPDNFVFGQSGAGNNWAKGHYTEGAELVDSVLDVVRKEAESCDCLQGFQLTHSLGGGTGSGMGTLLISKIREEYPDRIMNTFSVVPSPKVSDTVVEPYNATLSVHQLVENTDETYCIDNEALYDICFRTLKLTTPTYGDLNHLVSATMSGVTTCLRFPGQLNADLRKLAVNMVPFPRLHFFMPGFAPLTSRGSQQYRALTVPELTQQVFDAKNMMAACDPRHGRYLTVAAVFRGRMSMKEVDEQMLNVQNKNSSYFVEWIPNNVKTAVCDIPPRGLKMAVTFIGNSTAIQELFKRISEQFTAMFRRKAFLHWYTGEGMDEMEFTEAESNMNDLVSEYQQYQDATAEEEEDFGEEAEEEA

B1: UPF1 (protein, UniProt Q92900 1-1129)
chain: MSVEAYGPSSQTLTFLDTEEAELLGADTQGSEFEFTDFTLPSQTQTPPGGPGGPGGGGAGGPGGAGAGAAAGQLDAQVGPEGILQNGAVDDSVAKTSQLLAELNFEEDEEDTYYTKDLPIHACSYCGIHDPACVVYCNTSKKWFCNGRGNTSGSHIVNHLVRAKCKEVTLHKDGPLGETVLECYNCGCRNVFLLGFIPAKADSVVVLLCRQPCASQSSLKDINWDSSQWQPLIQDRCFLSWLVKIPSEQEQLRARQITAQQINKLEELWKENPSATLEDLEKPGVDEEPQHVLLRYEDAYQYQNIFGPLVKLEADYDKKLKESQTQDNITVRWDLGLNKKRIAYFTLPKTDSGNEDLVIIWLRDMRLMQGDEICLRYKGDLAPLWKGIGHVIKVPDNYGDEIAIELRSSVGAPVEVTHNFQVDFVWKSTSFDRMQSALKTFAVDETSVSGYIYHKLLGHEVEDVIIKCQLPKRFTAQGLPDLNHSQVYAVKTVLQRPLSLIQGPPGTGKTVTSATIVYHLARQGNGPVLVCAPSNIAVDQLTEKIHQTGLKVVRLCAKSREAIDSPVSFLALHNQIRNMDSMPELQKLQQLKDETGELSSADEKRYRALKRTAERELLMNADVICCTCVGAGDPRLAKMQFRSILIDESTQATEPECMVPVVLGAKQLILVGDHCQLGPVVMCKKAAKAGLSQSLFERLVVLGIRPIRLQVQYRMHPALSAFPSNIFYEGSLQNGVTAADRVKKGFDFQWPQPDKPMFFYVTQGQEEIASSGTSYLNRTEAANVEKITTKLLKAGAKPDQIGIITPYEGQRSYLVQYMQFSGSLHTKLYQEVEIASVDAFQGREKDFIILSCVRANEHQGIGFLNDPRRLNVALTRARYGVIIVGNPKALSKQPLWNHLLNYYKEQKVLVEGPLNNLRESLMQFSKPRKLVNTINPGARFMTTAMYDAREAIIPGSVYDRSSQGRPSSMYFQTHDQIGMISAGPSHVAAMNIPIPFNLVMPPMPPPGYFGQANGPAAGRGTPKGKTGRGGRQKNRFGLPGPSQTNLPNSQASQDVASQPFSQGALTQGYISMSQPSQMSQPGLSQPELSQDSYLGDEFKSQIDVALSQDSTYQGERAYQHGGVTGLSQY

Molecular target: LINE-1 ORF1p, endogenous in colorectal cancers (L1RE1, consensus ORF1p) (human (endogenous in colorectal tumours)) (UniProt Q9UN81)
Experiment: affinity purification with mass spectrometry; anti-ORF1p (Millipore Sigma #MABC1152) affinity medium with clarified extracts of cryomilled patient colorectal tumours A, B, C; 20 mM HEPES pH 7.4, 500 mM NaCl, 1% Triton X-100; 1 h at 4 °C; label-free quantitative MS against mouse IgG mock capture or matched normal tissue; second set of tumour A with RNasin

binding | Molecule
binds | HSP90AA1 (from UniProt P07900 1-732)
binds | HSP90AB1 (from UniProt P08238 1-724)
binds | TUBB (from UniProt P07437 1-444)
binds | B1
